Reference: patent US5696239A (The Dow Chemical Company, priority 1995, dated 1997)

Test system: CC-46 monoclonal antibody
Test: Attachment of Y-90 complex to CC-46 monoclonal antibody (complexes per antibody)
Conditions: CC-46 antibody, 40:1 complex to antibody, NaCNBH3

Row | Structure (SMILES) | average complexes per antibody [complexes per antibody]
1 | Nc1ccc(CC(CN(CCN(CC(=O)O)CC(=O)O)CC(=O)O)N(CC(=O)O)CC(=O)O)cc1 (centres unmarked) [ABDTPA, 1-(p-aminobenzyl)diethylenetriaminepentaacetic acid] | 5.0
2 | Nc1cc(CN(CCN(CC(=O)O)CC(=O)O)CC(=O)O)c(O)c(CN(CCN(CC(=O)O)CC(=O)O)CC(=O)O)c1 [Example 12] | 5.4
